The campaign covered roughly 410,000 compounds. About 18,000 (4.4%) were called active. The inconclusive results got no clear call from the source; some entries with a clear call stand among them for comparison. Rule as the data show it: active = activity change below about -60%; inconclusive = no clear call, values can overlap the other calls; inactive = above about -39%.
Experiment: qHTS Assay for inhibitors of the human cytomegalovirus (HCMV)
Conditions: HFF cells, HCMV-luciferase reporter, 72 h; at 57.5 µM; hits give low values
Method in brief: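 HFF cells seeded 16 h at 37C, treated with compounds, infected with luciferase-reporter HCMV at MOI 1 PFU/cell; luciferase read at 72 h post infection, normalized to buffer-only and Salinomycin controls.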
% is scaled to controls: 0 for no effect and ±100 for the full control effect.

Compound | activity change, negative = inhibition
Fc1ccc(C(CCCn2nnc(-c3cccnc3)n2)c2ccc(F)cc2)cc1 | active: -76.1%
CCOc1ccc2oc(C(=O)OCC(=O)NC3CCCC3)c(C)c2c1 | inconclusive: -42.6%
Cc1cccc(CSc2nnc(CCCCCN)o2)c1 | active: -75.9%
O=C(NNC(=O)c1cccc(C(F)(F)F)c1)c1ccc(-n2cnnn2)cc1 | inconclusive: -43%
O=C(NNc1ccccn1)C(c1ccccc1)c1ccccc1 | inactive: -17.4%
COc1ccc(-n2ncc(C(=O)NCCN3CCOCC3)c2C2CCN(C(=O)OC(C)(C)C)CC2)cc1 | inconclusive: 0%
CCCCNc1ccc(C(CC(N)=O)NC(=O)c2ccccc2)cc1[N+](=O)[O-] (centres undefined) | inconclusive: -49.2%
CCc1c(C)sc2c1CCN(C(=O)Nc1cc(C)ccc1C)C2c1ccc(OC)cc1 (centres undefined) | inactive: -13.7%
Cc1ccc(S(=O)(=O)CCC(=O)OCC(=O)N2CCN(S(=O)(=O)c3ccc(Cl)cc3)CC2)cc1 | inconclusive: -44.4%
CC1=C(N2CC2)C(=O)C(CO)=C(N2CC2)C1=O | active: -96.9%
CCCC(=O)N1CC2(CCN(C)CC2)c2c(n(C)c3cc(OC)ccc23)[C@H]1CO | inactive: 17.2%
CCOc1ccc(CN(Cc2ccco2)S(=O)(=O)c2ccc(-n3cnnn3)c(OC)c2)cc1 | inconclusive: -44.8%
O=C(N1CCOCC1)N1CCN(Cc2ccccc2)CC1 | inactive: 71.3%
CC1CCc2nc(NC(=O)CN3CCN(Cc4ccc5c(c4)OCO5)CC3)sc2C1 (centres undefined) | active: -62.9%
Cc1cccc(OCC(=O)N(Cc2ccc(F)cc2)C2CCS(=O)(=O)C2)c1C (centres undefined) | inconclusive: -41.9%
CC(=O)Nc1ccc(C(=O)Nc2ccc3c(c2)N(C2CCCC2)C(=O)c2ccccc2S3)cc1 | active: -83.2%
COc1ccc(-c2cc(C(=O)N/N=C/c3cccnc3)c3ccccc3n2)cc1 | inconclusive: -49.6%
CCn1c(CNC(=O)c2ccc(Cl)cc2)nnc1SCC(=O)NC1=NCCS1 | inactive: -37.4%
CC(/C=N/Nc1nc(C)cc(C)n1)=C\c1ccc(C(C)C)cc1 | inactive: -3.85%
COc1ccc(NC(=O)Cn2c(=O)n(Cc3ccco3)c(=O)c3oc4ccccc4c32)cc1Cl | inactive: -21.9%
COCCn1c(SCc2ccccc2F)nc2ccccc2c1=O | inconclusive: -40.9%
COc1ccc(C(=O)CN2CCN(c3ccc(F)cc3)CC2)cc1OC | inconclusive: -42.7%
CCOC(=O)C1CCCN(C(=O)c2cc(S(=O)(=O)N3CCCCC3)ccc2C)C1 (centres undefined) | inactive: -34.8%
COc1cc2c(cc1NC(=O)COc1ccc(Cl)cc1)oc1ccccc12 | inactive: -3.07%
Cc1ncsc1CCOC(=O)C1C2CC3CC(C2)CC1C3 (centres undefined) | inconclusive: -44%
CCn1c(SCC(=O)Nc2cc(C)on2)nc2sc(C)c(C)c2c1=O | inconclusive: -44.9%
Cc1ccc2nc(N(CCCN(C)C)C(=O)CS(=O)(=O)c3ccccc3)sc2c1 | inconclusive: -43.2%

Compound | activity change, negative = inhibition
COc1ccc2c3c1OC1[C@H](O)CCC4[C@@H](C2)N(C)CC[C@]314 (some centres undefined) | inconclusive: -43.6%
CC1CN=C(c2cc(Cl)c(N)c(Cl)c2)c2c3ccc(C(F)(F)F)cc3nn21 (centres undefined) | inactive: 63.3%
Cc1ccc(C)c(N2C(=O)c3ccc(C(=O)OCC(=O)c4c(N)n(C)c(=O)n(C)c4=O)cc3C2=O)c1 | inconclusive: -40.6%
CCOc1ccccc1/C=C/C(=O)NCC(=O)N1CCC(N(C)C2CCCCC2C)CC1 (centres undefined) | inconclusive: -53.1%
CCC(C(=O)OCC(=O)Nc1c(Cl)cccc1Cl)c1ccccc1 (centres undefined) | inconclusive: -48.5%
CCOC(=O)c1c(C)[nH]c(C)c1C(=O)CSc1nnc(-c2ccco2)n1Cc1ccccc1 | inactive: 17.3%
O=C(CCCNC(=O)/C(=C/c1ccccc1F)NC(=O)c1ccccc1)OCc1ccccc1 | inactive: -29.8%
COc1ccc(S(N)(=O)=O)cc1C(=O)NCC(C)(C)N1CCOCC1 | inconclusive: -49.8%
Cc1ccccc1Cn1c2ccccc2c2cnn(CC(=O)N3CCN(c4ccccc4)CC3)c(=O)c21 | inconclusive: -50.7%
Cc1oc(-c2ccccc2Cl)nc1CS(=O)(=O)CC(=O)NC(C)c1ccccc1 (centres undefined) | inconclusive: -53.4%
COc1ccc(Nc2nc(NCc3ccco3)nc(N3CCOCC3)n2)cc1 | inconclusive: -50.4%
CCC(=O)N1CCN(c2ccccc2NC(=S)NC(=O)c2ccco2)CC1 | inactive: -9.09%
O=C(/C=C/Nc1ccccc1)C(F)(F)F | active: -79.7%
CCCc1nn2cc(-c3ccc(C)c(C)c3)nc2s1 | active: -62%
CCOc1ccc2c(c1)[N+](C)(C)C(C)(C)C=C2C | inconclusive: -48.3%
Cc1cc(C)c(NC(=O)CSc2nc3[nH]ncc3c(=O)[nH]2)c(C)c1 | inconclusive: -46.3%
CCOC(=O)N1CCN(S(=O)(=O)N2CCCC(C(=O)NCCCN3CCCCC3)C2)CC1 (centres undefined) | inconclusive: 0%
CCN(CC)CCn1c(=N)n(CC(O)c2ccco2)c2ccccc21 (centres undefined) | inactive: -32.4%
CCOC(=O)c1sc2nc(C)nc(SCC(=O)N(CC)C3CCS(=O)(=O)C3)c2c1C (centres undefined) | active: -72.9%
O=C(Nc1ccnn1C1CCN(Cc2ccccc2)CC1)c1ccccc1Cl | inconclusive: -46.2%
O=C(c1ccc2c(=O)n(Cc3ccccc3)c(=S)[nH]c2c1)N1CCCC1 | inconclusive: -43.9%
CSc1ccc(/C=N/NC(=O)c2ccc(C)c(C)c2)cc1 | inactive: 4.12%
O=C(Nc1ccccc1C(=O)NC(Cc1ccccc1)C(=O)O)c1ccccc1 (centres undefined) | inconclusive: -55.3%
CC(C)CCSc1nc(N)c(C#N)cc1C#N | inconclusive: -58.9%
CCOC(=O)c1c(C)[nH]c(C)c1S(=O)(=O)N1CCC(C(=O)Nc2ccc(C)c(N(C)C)c2)CC1 | inactive: -4.95%
COc1cccc2c1C1COC3C4CC(C(=O)O)C(C(C2)N13)N4C (centres undefined) | active: -96%
N#CCCN(C(=O)CN1C(=O)NC2(CCCC2)C1=O)c1ccccc1F | inconclusive: -49.7%

Four entries drawn at random from the list so far:
Compound | activity change, negative = inhibition
COc1ccc(Nc2nc(NCc3ccco3)nc(N3CCOCC3)n2)cc1 | inconclusive: -50.4%
CCOC(=O)N1CCN(S(=O)(=O)N2CCCC(C(=O)NCCCN3CCCCC3)C2)CC1 (centres undefined) | inconclusive: 0%
CCOC(=O)c1c(C)[nH]c(C)c1S(=O)(=O)N1CCC(C(=O)Nc2ccc(C)c(N(C)C)c2)CC1 | inactive: -4.95%
CCC(C(=O)OCC(=O)Nc1c(Cl)cccc1Cl)c1ccccc1 (centres undefined) | inconclusive: -48.5%

From PubChem BioAssay AID1259415 (National Center for Advancing Translational Sciences (NCATS), 2018)
